# PubChem BioAssay AID2685 (National Center for Advancing Translational Sciences (NCATS), 2010)
# This is one part of the list. The main result of the screen is listed elsewhere. These columns were measured beside it and carry no call. Most of these compounds were active or inconclusive in the main read-out, so they are no random draw. Potencies come from curve fits of mixed quality, noted in brackets.
# Test: qHTS Assay for Lipid Storage Modulators in Drosophila S3 Cells;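 on cell number change: cells counted by Cell Tracker Red CMTPX staining in the red channel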
# Conditions: BODIPY lipid droplet fluorescence, 18-24 h; for cell number change: measured here: cell count max response, cells fed with added oleic acid
# Outline: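 Laser-scanning cytometry quantifies lipid droplet accumulation (500–530 nm total intensity; droplet/cell object ratio) in oleic acid-fed (400 uM added) Drosophila S3 cells treated with a concentration series. 20 uM Triacsin C defined 100% inhibition.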
# [1] = measured here: lipid fluorescence (Fed channel) AC50, cells fed with added oleic acid
# [2] = measured here: cell number channel AC50, cells fed with added oleic acid
Structure (SMILES),cell number change [%],AC50 [1],AC50 [2]
CN(C)CCCn1c(-c2ccccc2)nc(=S)c2c1CCCC2,-22.5,"23.1 µM [falling, single point]",–
Cc1ccc(C(=O)Oc2coc(CSc3nnc(NC(=O)c4cccs4)s3)cc2=O)cc1C,55.9,"14.6 µM [rising, single point]","29.1 µM [rising, partial curve, poor fit]"
CC(=O)c1cccc(NC(=O)C2CC(c3ccc(F)cc3)=NO2)c1 (stereo not drawn),-4.59,"20.6 µM [rising, partial curve]",–
NC(=O)CC(NC(=O)Cc1cccc2ccccc12)c1ccc(NCCN2CCCC2)c([N+](=O)[O-])c1 (stereo not drawn),-6.15,"2.91 µM [rising, single point]",–
COc1ccc(OC)c(C2C3=C(CCCC3=O)Nc3c2c(=O)n(C)c(=O)n3C)c1 (stereo not drawn),14.4,"6.51 µM [falling, single point]",–
O=C(CN1CCC(c2nc3ccccc3[nH]2)CC1)Nc1ccc2c(c1)OCO2,7.01,"0.146 µM [rising, full curve, poor fit]",–
Cc1ccc(S(=O)(=O)N2CCCC(C(=O)NC3=NCCS3)C2)cc1 (stereo not drawn),-74.8,–,"29.1 µM [falling, single point]"
CCN(C(=O)CSc1nnc(-c2c[nH]c3ccccc23)n1C1CC1)C1CCS(=O)(=O)C1 (stereo not drawn),-34,"2.06 µM [falling, partial curve]","2.06 µM [falling, partial curve]"
O=C(N[C@@H](Cc1ccccc1)C(=O)OCc1ccccc1)c1nc[nH]c1C(=O)NCc1ccccc1,-14.2,"6.51 µM [rising, single point]",–
CCOC(=O)c1ccc(-n2c(C)ccc2C)cc1,11.1,"29.1 µM [rising, single point]",–
CN1CCN(C(=O)c2ccc3c(=O)n(Cc4ccc(Cl)cc4)c(=S)[nH]c3c2)CC1,-17.7,"0.461 µM [falling, full curve, poor fit]",–
CC(C)C1CC(CCN2CCCCC2)(c2ccccc2)CCO1 (stereo not drawn),-53.1,"0.651 µM [falling, full curve, poor fit]","8.2 µM [falling, partial curve, poor fit]"
OC(COCc1ccc(Cl)cc1)CN1CCN(CC(O)COCc2ccc(Cl)cc2)CC1 (stereo not drawn),-160,"29.1 µM [falling, single point]","29.1 µM [falling, single point]"
COc1ccc(-c2nn(-c3ccccc3)cc2C(=O)n2nnc3ccccc32)cc1,7.37,"0.326 µM [falling, partial curve, poor fit]",–
N#Cc1c(-c2cccnc2)cc(-c2ccccc2)nc1N,–,"0.82 µM [rising, full curve, poor fit]",–
CCOC(=O)C1=C(C)NC(=O)NC1C1CC=CCC1 (stereo not drawn),–,"20.6 µM [falling, single point]",–
COc1ccc(OCCSc2nnc3c(Cl)cc(Cl)cn23)cc1,0.852,"0.058 µM [rising, full curve, poor fit]",–
COc1ccccc1CNC(=O)C1CCC(=O)N1C(C)C (stereo not drawn),31.2,–,"18.4 µM [rising, single point]"
O=C(Cn1c(O)c(/C=C2\C=Nc3ccccc32)sc1=O)Nc1ccc2c(c1)OCO2,-9.13,"9.2 µM [falling, partial curve]",–
Cc1ccc(C23CC4CC(CC(C(=O)N5CCOCC5)(C4)C2)C3)cc1,68.8,–,"23.1 µM [rising, single point]"
CC(=O)c1ccc(NC(=O)[C@@H]2CCCN2C(=O)OC(C)(C)C)cc1,3.6,–,–
Cn1nc(-c2ccc(Cl)cc2)c2cc(C(=O)NCc3ccco3)sc21,77.8,"1.64 µM [rising, partial curve]","2.06 µM [rising, full curve]"
COc1ccccc1-c1cc(C(=O)Nc2cc(C)nn2-c2ccccc2)no1,–,–,"6.51 µM [rising, partial curve, poor fit]"
COc1cc(SC)ccc1C(=O)OCC(=O)NC1CCCCC1,7.69,–,–
CCOCCn1ccc2c(OCC(=O)Nc3ccccc3F)cccc2c1=O,67.9,"29.1 µM [falling, single point]","29.1 µM [rising, single point]"
CCOC(=O)C1=C(c2ccccc2)OC(N)=C(C#N)C1c1ccncc1 (stereo not drawn),-33.4,"20.6 µM [falling, single point]","4.11 µM [falling, full curve, poor fit]"
CCn1c(Sc2nc(C)nc3scc(-c4cccs4)c23)n[nH]c1=O,-17.2,–,–
CCCCCc1c(C)nc(SCC(=O)O)[nH]c1=O,-108,"4.61 µM [falling, partial curve]","4.61 µM [falling, partial curve]"

# Single entries from the entries so far.
# cell number change [%] with CCn1c(Sc2nc(C)nc3scc(-c4cccs4)c23)n[nH]c1=O reads -17.2
# AC50 [1] with CN(C)CCCn1c(-c2ccccc2)nc(=S)c2c1CCCC2 reads 23.1 µM [falling, single point]
